Results as given in the supplement of paper PMC12819154, “High-throughput peptide-centric local stability assay extends protein–ligand identification to membrane proteins, tissues and bacteria” (Nature Structural & Molecular Biology, 2025).
The list shows a part of the results. Small differences around the control level are noise.

Protein sequences, listed by entry. Tags and fused reporters are not part of them. Lines headed by an entry give the natural chain unless they say otherwise; changes in a name come on top.
UniProt O95081: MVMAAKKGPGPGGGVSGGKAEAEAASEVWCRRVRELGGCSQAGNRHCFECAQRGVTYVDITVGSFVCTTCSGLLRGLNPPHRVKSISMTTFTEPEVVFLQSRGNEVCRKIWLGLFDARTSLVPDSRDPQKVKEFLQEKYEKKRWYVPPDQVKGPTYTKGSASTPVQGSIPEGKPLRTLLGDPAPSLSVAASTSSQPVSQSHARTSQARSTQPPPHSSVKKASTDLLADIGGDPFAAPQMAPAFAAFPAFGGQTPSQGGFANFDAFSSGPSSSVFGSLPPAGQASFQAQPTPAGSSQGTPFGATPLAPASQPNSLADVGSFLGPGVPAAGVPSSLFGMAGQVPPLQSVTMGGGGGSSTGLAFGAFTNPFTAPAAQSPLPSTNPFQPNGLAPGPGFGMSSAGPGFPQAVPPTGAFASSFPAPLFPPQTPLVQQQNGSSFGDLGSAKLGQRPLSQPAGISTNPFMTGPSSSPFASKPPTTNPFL
UniProt O76094: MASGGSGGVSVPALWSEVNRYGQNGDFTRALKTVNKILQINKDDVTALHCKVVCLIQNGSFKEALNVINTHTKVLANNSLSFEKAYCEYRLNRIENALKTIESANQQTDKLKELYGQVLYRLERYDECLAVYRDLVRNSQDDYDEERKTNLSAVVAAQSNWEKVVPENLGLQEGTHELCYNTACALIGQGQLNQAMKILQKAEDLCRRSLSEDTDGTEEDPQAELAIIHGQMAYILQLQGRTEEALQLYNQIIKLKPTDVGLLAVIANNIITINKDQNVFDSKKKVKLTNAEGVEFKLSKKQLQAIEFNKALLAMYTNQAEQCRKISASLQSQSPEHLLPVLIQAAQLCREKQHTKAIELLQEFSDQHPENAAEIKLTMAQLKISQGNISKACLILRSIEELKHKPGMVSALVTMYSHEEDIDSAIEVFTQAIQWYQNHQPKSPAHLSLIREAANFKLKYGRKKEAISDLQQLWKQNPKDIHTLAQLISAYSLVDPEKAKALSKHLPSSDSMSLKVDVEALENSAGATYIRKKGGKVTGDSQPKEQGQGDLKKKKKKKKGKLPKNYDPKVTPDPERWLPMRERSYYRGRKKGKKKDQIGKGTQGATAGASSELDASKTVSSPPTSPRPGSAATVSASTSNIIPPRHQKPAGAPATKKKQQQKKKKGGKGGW
UniProt O95816: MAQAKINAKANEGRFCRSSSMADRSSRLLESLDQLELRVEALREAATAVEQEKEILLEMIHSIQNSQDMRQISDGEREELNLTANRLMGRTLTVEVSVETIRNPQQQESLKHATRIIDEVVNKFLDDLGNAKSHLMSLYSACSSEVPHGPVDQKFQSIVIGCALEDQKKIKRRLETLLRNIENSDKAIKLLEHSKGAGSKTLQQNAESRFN
UniProt O95104: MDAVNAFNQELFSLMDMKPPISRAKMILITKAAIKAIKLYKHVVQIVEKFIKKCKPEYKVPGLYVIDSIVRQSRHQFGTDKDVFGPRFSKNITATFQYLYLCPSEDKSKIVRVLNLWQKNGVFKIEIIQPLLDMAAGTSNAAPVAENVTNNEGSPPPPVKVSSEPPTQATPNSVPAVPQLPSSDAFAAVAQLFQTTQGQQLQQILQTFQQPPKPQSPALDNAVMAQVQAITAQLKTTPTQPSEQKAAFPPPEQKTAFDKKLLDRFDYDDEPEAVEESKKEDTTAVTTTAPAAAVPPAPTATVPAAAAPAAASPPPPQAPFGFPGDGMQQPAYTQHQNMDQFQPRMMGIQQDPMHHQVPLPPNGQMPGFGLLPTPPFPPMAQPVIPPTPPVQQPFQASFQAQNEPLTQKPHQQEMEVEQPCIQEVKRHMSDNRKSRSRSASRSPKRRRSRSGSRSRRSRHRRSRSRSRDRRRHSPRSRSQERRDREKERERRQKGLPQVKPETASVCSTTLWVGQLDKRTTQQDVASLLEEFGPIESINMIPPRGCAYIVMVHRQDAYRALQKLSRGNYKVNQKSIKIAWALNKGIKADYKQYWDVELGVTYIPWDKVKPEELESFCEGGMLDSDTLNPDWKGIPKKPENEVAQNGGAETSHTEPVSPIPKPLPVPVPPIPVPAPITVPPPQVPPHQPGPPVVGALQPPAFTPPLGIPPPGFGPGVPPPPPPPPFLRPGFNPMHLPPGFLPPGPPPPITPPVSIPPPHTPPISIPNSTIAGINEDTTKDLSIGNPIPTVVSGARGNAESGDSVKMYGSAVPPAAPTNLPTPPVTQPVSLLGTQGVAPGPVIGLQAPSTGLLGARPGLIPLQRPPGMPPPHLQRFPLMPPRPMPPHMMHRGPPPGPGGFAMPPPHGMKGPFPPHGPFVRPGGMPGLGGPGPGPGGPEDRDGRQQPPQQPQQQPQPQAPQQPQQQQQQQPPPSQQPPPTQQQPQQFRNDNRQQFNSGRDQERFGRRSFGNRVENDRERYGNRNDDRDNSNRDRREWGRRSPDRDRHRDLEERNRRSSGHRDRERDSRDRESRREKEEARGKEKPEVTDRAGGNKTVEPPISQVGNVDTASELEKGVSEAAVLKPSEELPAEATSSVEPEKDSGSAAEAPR
UniProt O95831, whole entry: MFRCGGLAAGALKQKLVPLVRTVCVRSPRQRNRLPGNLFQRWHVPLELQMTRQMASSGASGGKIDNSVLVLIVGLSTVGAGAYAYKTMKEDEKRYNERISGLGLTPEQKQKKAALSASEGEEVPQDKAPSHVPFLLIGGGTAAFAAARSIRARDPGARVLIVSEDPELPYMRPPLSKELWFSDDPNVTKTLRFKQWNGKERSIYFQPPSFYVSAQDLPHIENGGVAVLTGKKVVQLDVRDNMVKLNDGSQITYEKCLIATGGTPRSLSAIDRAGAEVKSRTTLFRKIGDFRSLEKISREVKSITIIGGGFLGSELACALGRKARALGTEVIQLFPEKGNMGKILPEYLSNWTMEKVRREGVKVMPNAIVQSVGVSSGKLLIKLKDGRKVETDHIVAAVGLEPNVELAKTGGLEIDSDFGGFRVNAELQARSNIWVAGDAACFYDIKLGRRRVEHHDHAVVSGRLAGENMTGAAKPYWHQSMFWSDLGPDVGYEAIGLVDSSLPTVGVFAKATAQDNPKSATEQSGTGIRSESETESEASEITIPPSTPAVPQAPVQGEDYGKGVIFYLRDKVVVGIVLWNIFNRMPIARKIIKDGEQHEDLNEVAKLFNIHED
UniProt O94906: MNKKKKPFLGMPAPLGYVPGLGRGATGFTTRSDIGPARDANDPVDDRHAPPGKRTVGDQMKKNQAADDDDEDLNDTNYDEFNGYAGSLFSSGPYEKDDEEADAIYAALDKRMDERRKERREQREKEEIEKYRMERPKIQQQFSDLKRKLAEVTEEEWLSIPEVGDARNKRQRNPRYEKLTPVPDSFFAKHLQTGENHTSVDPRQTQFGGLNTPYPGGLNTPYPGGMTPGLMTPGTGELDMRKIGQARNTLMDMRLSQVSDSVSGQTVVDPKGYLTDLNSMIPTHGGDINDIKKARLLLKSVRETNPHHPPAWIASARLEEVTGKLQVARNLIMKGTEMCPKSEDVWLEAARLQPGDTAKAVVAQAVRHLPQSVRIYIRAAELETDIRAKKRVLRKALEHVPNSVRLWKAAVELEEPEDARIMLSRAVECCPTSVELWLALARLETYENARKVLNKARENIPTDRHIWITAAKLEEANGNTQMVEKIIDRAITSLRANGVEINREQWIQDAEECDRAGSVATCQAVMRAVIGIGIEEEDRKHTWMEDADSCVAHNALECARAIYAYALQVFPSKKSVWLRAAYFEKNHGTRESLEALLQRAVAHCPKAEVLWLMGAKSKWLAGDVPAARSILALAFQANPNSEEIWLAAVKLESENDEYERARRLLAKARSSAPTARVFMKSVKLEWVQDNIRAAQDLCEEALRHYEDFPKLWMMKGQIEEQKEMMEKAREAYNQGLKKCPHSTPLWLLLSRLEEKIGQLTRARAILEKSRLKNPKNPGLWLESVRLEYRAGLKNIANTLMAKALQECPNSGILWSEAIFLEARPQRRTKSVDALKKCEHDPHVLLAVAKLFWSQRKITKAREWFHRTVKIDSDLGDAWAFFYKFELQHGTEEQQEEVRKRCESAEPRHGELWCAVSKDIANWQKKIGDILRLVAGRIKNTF
UniProt O95626: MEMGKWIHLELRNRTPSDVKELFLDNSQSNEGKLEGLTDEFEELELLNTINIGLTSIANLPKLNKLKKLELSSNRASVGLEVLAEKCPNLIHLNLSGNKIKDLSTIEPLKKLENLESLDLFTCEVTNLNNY
UniProt O95825: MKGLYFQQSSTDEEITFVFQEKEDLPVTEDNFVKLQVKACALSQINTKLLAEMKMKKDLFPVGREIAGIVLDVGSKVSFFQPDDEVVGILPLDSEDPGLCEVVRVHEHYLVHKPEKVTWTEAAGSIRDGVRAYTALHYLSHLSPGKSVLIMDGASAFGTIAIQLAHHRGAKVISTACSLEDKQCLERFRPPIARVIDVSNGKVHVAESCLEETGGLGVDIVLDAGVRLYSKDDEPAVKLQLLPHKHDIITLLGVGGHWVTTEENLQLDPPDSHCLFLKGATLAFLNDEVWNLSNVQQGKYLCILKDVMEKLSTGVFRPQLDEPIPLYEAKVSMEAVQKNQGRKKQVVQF

These targets were tested with CN[C@@H]1C[C@H]2O[C@@](C)([C@@H]1OC)n1c3ccccc3c3c4c(c5c6ccccc6n2c5c31)C(=O)NC4 [staurosporine] (assay: log2 fold change of tryptic peptide abundance, ligand vs vehicle (limited proteolysis) (log2 ratio); higher = more trypsin-susceptible (destabilized)). Conditions: ligand concentration: 20 uM; sample: K562 cleared lysate; digestion: 4 min, 22 C (HT-PELSA RT4min, Orbitrap Astral).
With “AGFG2 (peptide sequence: KIWLGLFDAR, peptide start residue: 109) (UniProt O95081)” the log2 fold change was -0.192. “SRP72 (peptide sequence: VLANNSLSFEK, peptide start residue: 74) (UniProt O76094)” showed a log2 fold change of 0.161. In the case of “BAG2 (peptide sequence: TLQQNAESR, peptide start residue: 201) (UniProt O95816)”, the log2 fold change is reported as -0.128. In the case of “UniProt O95104 (peptide sequence: GKEKPEVTDR, peptide start residue: 1077)”, the log2 fold change is reported as 0.217. Target “AIFM1 (peptide sequence: KVETDHIVAAVGLEPNVELAK, peptide start residue: 388) (UniProt O95831)” has a log2 fold change of 0.316. “PRPF6 (peptide sequence: GQIEEQKEMMEK, peptide start residue: 716) (UniProt O94906)” showed a log2 fold change of -0.175. Target “UniProt O95626 (peptide sequence: DLSTIEPLK, peptide start residue: 102)” has a log2 fold change of -0.187. Target “CRYZL1 (peptide sequence: AYTALHYLSHLSPGK, peptide start residue: 132) (UniProt O95825)” has a log2 fold change of 0.166.
